Measurements taken from patent US8603531B2, “Nanometer-sized prodrugs of NSAIDs” (Cedars-Sinai Medical Center, priority 2008, dated 2013).

Test: Oxidative destabilization of nanoprodrugs (turbidity at 500 nm after HOCl)
Details: nanoprodrug 250 μM, HOCl 25-1000 μM, PBS pH 7.4
Protocol: The nanoprodrugs were purified by centrifuging three times at 20,000×g for 10 min at 25° C. and resuspending each time in the same volume of deionized water. The purified nanoprodrugs were resuspended in phosphate buffered saline (PBS, pH 7.4) to give the final concentration of 250 μM NSAID derivatives. The concentration of HOCl in the diluted commercial sodium hypochlorite solution was determined spectrophotometrically (ε292=350 M^−1 cm^−1) (Morris, 1966). HOCl was added to the suspension of nanoprodrugs to give the final concentration of 25-1000 μM and the reduction in turbidity was measured immediately using ultraviolet/visible spectrometer (Bio-Rad SmartSpec™ 3000, Hercules, Calif., USA) at room temperature with a wavelength λ=500 nm.

Row | SMILES | Change in OD (turbidity, 500 nm) in the presence of HOCl
1 | CC(C)Cc1ccc(C(C)C(=O)OCCOCCOCCOCCOC(=O)C(C)c2ccc(CC(C)C)cc2)cc1 (stereo not drawn) [Ibu2TEG, Tetraethylene glycol(ibuprofen)2] | did not show any changes in OD
2 | COc1ccc2c(c1)c(CC(=O)OCCOCCOCCOCCOC(=O)Cc1c(C)n(C(=O)c3ccc(Cl)cc3)c3ccc(OC)cc13)c(C)n2C(=O)c1ccc(Cl)cc1 [Ind2TEG] | did not show any changes in OD
3 | COc1ccc2cc(C(C)C(=O)OCCOCCOCCOCCOC(=O)C(C)c3ccc4cc(OC)ccc4c3)ccc2c1 (stereo not drawn) [Npx2TEG] | did not show any changes in OD

Some compounds share one wording; it may come from a single statement.
